Source: patent publication US20140364335
For part of these data: At least one result comes from cells or an extract, where the contact may be indirect. For part of these data: The exact form of at least one protein or probe is not confirmed.

The chains behind the UniProt entries cited, without tags or fusion partners. Where a name states a change or a piece, a line headed by the entry shows the natural chain unless it says otherwise.
UniProt O54790: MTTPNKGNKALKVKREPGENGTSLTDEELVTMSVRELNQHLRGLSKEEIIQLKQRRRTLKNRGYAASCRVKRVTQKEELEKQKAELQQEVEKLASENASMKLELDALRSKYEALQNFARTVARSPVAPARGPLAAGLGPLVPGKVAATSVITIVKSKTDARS

Experiments:
[1] = system: Nrf2 CT/MafG 1-123 heterodimer; experiment: EMSA; details: room temperature 20 min; purified recombinant protein; protein details: 6xHis on each, E. coli; label: 5' biotin (EMSA)
[2] = molecular target: MafG (endogenous, Hepa1 chromatin) (Mus musculus) (UniProt O54790); experiment: binding assay; details: ChIP-qPCR, protein in cells, label: 5' biotin (EMSA)

Row | Sequence | binding result [1] | binding result [2] | binding result ([2]; strong)
1 | ACGCTCCTGCCGCTGAGCTGTGACTCAGCCAGAGAACTGAG (double strand) [Lipin1 promoter ARE] | binds | binds | –
2 | CACACCCTGCCCAGAGGCACACTTGCTGAGTCAGCACCCCGG (double strand) [Lipin1 intron ARE] | binds | – | binds
3 | TTGATAGTGAGGGGAACATGCTGACTCAGCAGCTCCGAATAA (double strand) [PGC-1beta intron ARE] | binds | – | binds
